The other results are listed elsewhere or left out.

Sequences of proteins named here, by UniProt entry; tags and fusion partners are left off.
UniProt Q0JBA9, entry or part of it: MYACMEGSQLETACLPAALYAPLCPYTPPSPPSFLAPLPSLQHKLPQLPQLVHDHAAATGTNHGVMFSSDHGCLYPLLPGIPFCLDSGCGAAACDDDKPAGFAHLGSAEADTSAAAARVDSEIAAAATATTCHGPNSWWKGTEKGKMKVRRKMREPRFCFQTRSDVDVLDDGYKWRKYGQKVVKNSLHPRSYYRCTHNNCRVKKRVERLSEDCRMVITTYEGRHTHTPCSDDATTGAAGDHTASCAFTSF

This experiment deals with OsWRKY34 (Oryza sativa, UniProt Q0JBA9 1-250). Briefly: protein-binding microarray (RPBM); PBS, 2% BSA, 51.3 ng/ul salmon testes DNA, 50 uM zinc acetate, 200 nM TF, 25 C, 1 h; high values mean tight binding. The note with it: protein: recombinant; tags: N-terminal polyhistidine and DsRed monomer fusion (pET32a); label: CyDye5-dUTP incorporated in the synthesized complementary strand; 3' TTTTT single-stranded linker to array surface; dsDNA, one strand shown. The gist of the method: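 Binding signal is defined as the fluorescence intensity of each feature in arbitrary units, read on an Axon 4000B scanner. Transcription factors with N-terminal polyhistidine and DsRed fusions came from E. coli BL21-CodonPlus and were purified on Ni–NTA. They were incubated at 200 nM for 1 h at 25 °C on a custom Agilent array that had been made double-stranded with Cy5-dUTP, with 50 µM zinc acetate present, and the array was washed.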
“TTCACCCCTTGATCCAACGGCTTTTAATTGGTTTTACAGTCGGAGTCACCTAGTGCAG”: the binding signal is 9490 fluorescence intensity (a.u.). Next, “AACAATAACGTTTCAATATTTCTTTCGTTTATACCATTAACGGAGTCACCTAGTGCAG”: 11400 fluorescence intensity (a.u.); “ACTTATTTTCTCACTTTGCTGCAACGGTTTTTATGGCACGCGGAGTCACCTAGTGCAG”: 8580 fluorescence intensity (a.u.). Next, “TTAGCACATGTTTGACCGTTCGTCTTATTCAAAATTTTTTCGGAGTCACCTAGTGCAG”: 12600 fluorescence intensity (a.u.). On to “CAATCTATTATTCAACATTTGGGGACACAAATTATGTCGTCGGAGTCACCTAGTGCAG”, for which the binding signal was 8080 fluorescence intensity (a.u.).

For “ATGGCTTCCTTGTATATCTTGGTCTTCTTTCTGTATTCGTCGGAGTCACCTAGTGCAG”, the binding signal was 11600 fluorescence intensity (a.u.).

Consider “AATTTTGCCGCCAGCCCATTCCACTACCTAACCATCTCTTCGGAGTCACCTAGTGCAG”, for which the binding signal is 8400 fluorescence intensity (a.u.). “ATATTCTTTTTGGTTTGGATGGTTTTTTTTTTATAGATCTCGGAGTCACCTAGTGCAG”: the binding signal is 12600 fluorescence intensity (a.u.). Regarding “AAATCCCACGCACAAGTCGTCGCGGGCGTTCTATACTTCTCGGAGTCACCTAGTGCAG”, the binding signal is 8700 fluorescence intensity (a.u.). As for “TCCATCCAGGGAAAGGGTAGGGGAAGGTGGCAATGAGGATCGGAGTCACCTAGTGCAG”, the binding signal was 9820 fluorescence intensity (a.u.). Take “TTAGTGTTACCGCCTTATCTTTTCGTTTATACTTTGAATTCGGAGTCACCTAGTGCAG”: the binding signal is 11700 fluorescence intensity (a.u.).

As to “TTTATCGTTTAATTGGGTCCTGTAGTACATCAATCTTGTCCGGAGTCACCTAGTGCAG”, the binding signal was 8670 fluorescence intensity (a.u.). In the case of “CTAACGCGGACGCCCATCTCCACCGTCCGATCTCGCCACTCGGAGTCACCTAGTGCAG”, the binding signal is 10300 fluorescence intensity (a.u.).

Take “TCACAACACATGTTCAGTATCTTGTTTATCTGGATTAAAACGGAGTCACCTAGTGCAG”: the binding signal was 10400 fluorescence intensity (a.u.). In the case of “TGCATGATTTGTTTCAGCGAGTTTCCTGGTAACTTTTCCACGGAGTCACCTAGTGCAG”, the binding signal is 8210 fluorescence intensity (a.u.). For “ACGTGGATTTAGCCTAAAAGTGGTAATTGCTGATTATTCCCGGAGTCACCTAGTGCAG”, the binding signal was 8110 fluorescence intensity (a.u.). Next, “GGTGGATCCATACTACTGCGTTGCTGGCCTTGTTTCATTCCGGAGTCACCTAGTGCAG”: 9470 fluorescence intensity (a.u.); “ACGTATGCTGATCATCCTCTTTCTCTAAAATATATATTTACGGAGTCACCTAGTGCAG”: 8330 fluorescence intensity (a.u.).

“AGATTCACTTGACCCACACAGCACACATACACATACTGACCGGAGTCACCTAGTGCAG”: the binding signal is 8440 fluorescence intensity (a.u.). Next, “TCACCAACCCGACGTGGCCGCTCTTCCACGTCAACATCCTCGGAGTCACCTAGTGCAG”: 8820 fluorescence intensity (a.u.); “CCATTTATGCCGTCCTTGGGCCTTACGGAAACTTAAAAATCGGAGTCACCTAGTGCAG”: 8750 fluorescence intensity (a.u.); “GTTCAGTTAAGACGTACGTCTGTGGAAATAAACTTATTTTCGGAGTCACCTAGTGCAG”: 10100 fluorescence intensity (a.u.). Next, “ACCTGTTCTCTGTCCAAATTAGCAGACATATTTTTTTTAACGGAGTCACCTAGTGCAG”: 9080 fluorescence intensity (a.u.); “AAATTTTGTTATTTCTACCCATTACTTGTTTCAAATTGTTCGGAGTCACCTAGTGCAG”: 8560 fluorescence intensity (a.u.).

Consider “TTCATTGTTAAATATACTTTCATGTACACATATAGTTTTACGGAGTCACCTAGTGCAG”, for which the binding signal is 9420 fluorescence intensity (a.u.). For “TACTCTCTCTGTCCCCTTTTGTTTTTTTTCCTGTATACTGCGGAGTCACCTAGTGCAG”, the binding signal was 8690 fluorescence intensity (a.u.). Next, “GATTCCGTAGTCGTCGTCATCAGTAGTCTATCGATTTTGCCGGAGTCACCTAGTGCAG”: 9800 fluorescence intensity (a.u.). Regarding “GCCCGTGTCTTGTGTGTTTCCGCTCTTGCGAACCTTCCACCGGAGTCACCTAGTGCAG”, the binding signal was 13900 fluorescence intensity (a.u.). Under “TGCCTTCTGAGTTCTGAAACGTTGTATCCATGTGAAATTTCGGAGTCACCTAGTGCAG” stands 8710 fluorescence intensity (a.u.); under “GCCAAGTGACAATCTAAAATCTATCCATTGATTTTCTTTTCGGAGTCACCTAGTGCAG”, 8100 fluorescence intensity (a.u.); under “GGTCCCGTTCCGATCCTCACTCGGTCACTCATCTTTCCTTCGGAGTCACCTAGTGCAG”, 8730 fluorescence intensity (a.u.). Next, “GGGGAGTCGTTCTAACCGGTTTTCTGGTTGAGGGGTACAACGGAGTCACCTAGTGCAG”: 13500 fluorescence intensity (a.u.); “TATTTCTTGGCCATACTTTTGCCACATGCCACAACTTACCCGGAGTCACCTAGTGCAG”: 10500 fluorescence intensity (a.u.). Next, “GAGGAATTCTTCCAGTAGTATCGGCCATTTCCCCTACTTTCGGAGTCACCTAGTGCAG”: 10000 fluorescence intensity (a.u.). As for “CCGCTGCTTCTCCTGTTCGTCTCCTTTCTCAGTAACTGCACGGAGTCACCTAGTGCAG”, the binding signal was 8180 fluorescence intensity (a.u.).

In the case of “GCACTTGACTTGCGTGGACTCCAACTTCCCATTTTACCCCCGGAGTCACCTAGTGCAG”, the binding signal is 9840 fluorescence intensity (a.u.). Next, “GGAGTCAGGGGTGGTTCGGCCTCTCATCACCGACCTTCACCGGAGTCACCTAGTGCAG”: 9490 fluorescence intensity (a.u.); “AATCCATCATTAGTAAATGTTTACTGTAGCACCATATTGTCGGAGTCACCTAGTGCAG”: 8850 fluorescence intensity (a.u.); “TTTATTTGCACTGTTTGACCATTCGTATTATTCAAAATTTCGGAGTCACCTAGTGCAG”: 9990 fluorescence intensity (a.u.). With “ATGCCCTGTTACCTGTGTGTGATTTCTTTGTGCTCCATAACGGAGTCACCTAGTGCAG”, the binding signal was 17600 fluorescence intensity (a.u.).

In the case of “CGGCGTCTCCCAATCCGTGTCAGCCACATCGCCCCTTAATCGGAGTCACCTAGTGCAG”, the binding signal is 8640 fluorescence intensity (a.u.). Under “TTAATAAGACAAACGGTCAACATATTTGAAAAAGTCAACGCGGAGTCACCTAGTGCAG” stands 12700 fluorescence intensity (a.u.).

For the origin of these results see article PMC7819943, “Rice protein-binding microarrays: a tool to detect cis-acting elements near promoter regions in rice”.
